Experimental data from patent publication US8501946B2 (Glaxo Group Limited, priority 2009, dated 2013).
Some entries share one result that the patent states for a list of compounds.

biological target: T1, human recombinant P2X7 receptors (Homo sapiens, UniProt Q99572); assay: Fluorescent Imaging Plate Reader (FLIPR) Ca Assay (BzATP-induced intracellular calcium increase); format: cell-based; settings: HEK293 or U-2OS cells expressing human P2X7; 60 μM BzATP; or a slightly modified version of the assay
T1 construct: expressed in transfected cells
T1 sequence (Q99572 1-595): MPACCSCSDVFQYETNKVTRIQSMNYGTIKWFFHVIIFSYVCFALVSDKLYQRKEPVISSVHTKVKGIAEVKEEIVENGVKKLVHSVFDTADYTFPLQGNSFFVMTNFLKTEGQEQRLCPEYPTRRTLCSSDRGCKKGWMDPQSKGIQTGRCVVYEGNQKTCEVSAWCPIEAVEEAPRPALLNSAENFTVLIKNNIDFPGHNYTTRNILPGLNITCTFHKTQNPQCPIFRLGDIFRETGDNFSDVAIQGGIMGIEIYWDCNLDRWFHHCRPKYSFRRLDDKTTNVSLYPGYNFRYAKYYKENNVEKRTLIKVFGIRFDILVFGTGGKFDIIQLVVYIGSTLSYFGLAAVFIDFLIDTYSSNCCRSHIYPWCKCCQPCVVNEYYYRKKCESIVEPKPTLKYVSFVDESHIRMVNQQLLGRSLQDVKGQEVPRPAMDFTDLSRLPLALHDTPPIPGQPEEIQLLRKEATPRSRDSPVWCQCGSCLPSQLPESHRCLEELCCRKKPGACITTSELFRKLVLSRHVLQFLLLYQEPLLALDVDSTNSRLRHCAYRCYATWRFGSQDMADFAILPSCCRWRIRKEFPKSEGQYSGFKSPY

pIC50 in the FLIPR Ca Assay (blocking BzATP responses), ≥ 5:
Cn1nccc1-c1nnc2n1CCN(C(=O)c1cccc(Cl)c1Cl)C2 [Example 81, 7-[(2,3-dichlorophenyl)carbonyl]-3-(1-methyl-1H-pyrazol-5-yl)-5,6,7,8-tetrahydro[1,2,4]triazolo [4,3-]pyrazine]
Cn1cccc1-c1nnc2n1CCN(C(=O)c1ccc(F)cc1Cl)C2 [Example 82, -[(2-chloro-4-fluorophenyl)carbonyl]-3-(1-methyl-1H-pyrrol-2-yl)-5,6,7,8-tetrahydro[1,2,4]triazolo [4,3-a]pyrazine]
O=C(c1cccc(C(F)(F)F)c1Cl)N1CCn2c(nnc2-c2ncc(F)cc2F)C1 [Example 83, 7-{[2-chloro-3-(trifluoromethyl)phenyl]carbonyl}-3-(3,5-difluoro-2-pyridinyl)-5,6,7,8-tetrahydro[1,2,4]triazolo [4,3-a]pyrazine]
O=C(c1ccc(F)cc1Cl)N1CCn2c(nnc2-c2ncc(F)cc2F)C1 [Example 84, 7-[(2-chloro-4-fluorophenyl)carbonyl]-3-(3,5-difluoro-2-pyridinyl)-5,6,7,8-tetrahydro[1,2,4]triazolo [4,3-a]pyrazine]
O=C(c1ccc(F)cc1Cl)N1CCn2c(nnc2-c2cnccn2)C1 [Example 85, 7-[(2-chloro-4-fluorophenyl)carbonyl]-3-(2-pyrazinyl)-5,6,7,8-tetrahydro[1,2,4]triazolo[4,3-a]pyrazine]
O=C(c1cccc(C(F)(F)F)c1)N1CCn2c(nnc2-c2ccccn2)C1 [Example 86]
N#Cc1ccccc1C(=O)N1CCn2c(nnc2-c2ccccn2)C1 [Example 87, 2-{[3-(2-pyridinyl)-5,6-dihydro[1,2,4]triazolo[4,3-a]pyrazin-7(8H)-yl]carbonyl}benzonitrile]
O=C(c1cccc(F)c1F)N1CCn2c(nnc2-c2ccccn2)C1 [Example 88, 7-[(2,3-difluorophenyl)carbonyl]-3-(2-pyridinyl)-5,6,7,8-tetrahydro[1,2,4]triazolo [4,3-a]pyrazine]
O=C(c1c(Cl)cccc1Cl)N1CCn2c(nnc2-c2ccccn2)C1 [Example 89, 7-[(2,6-dichlorophenyl)carbonyl]-3-(2-pyridinyl)-5,6,7,8-tetrahydro[1,2,4]triazolo [4,3-a]pyrazine]
O=C(c1ccc(F)cc1Cl)N1CCn2c(nnc2-c2cscn2)C1 [Example 90, 7-[(2-chloro-4-fluorophenyl)carbonyl]-3-(1,3-thiazol-4-yl)-5,6,7,8-tetrahydro[1,2,4]triazolo [4,3-a]pyrazine]
O=C(c1cccc(C(F)(F)F)c1F)N1CCn2c(nnc2-c2ccccn2)C1 [Example 91, 7-{[2-fluoro-3-(trifluoromethyl)phenyl]carbonyl}-3-(2-pyridinyl)-5,6,7,8-tetrahydro[1,2,4]triazolo [4,3-a]pyrazine]
O=C(c1ccc(Cl)cc1Cl)N1CCn2c(nnc2-c2cnccn2)C1 [Example 92, 7-[(2,4-dichlorophenyl)carbonyl]-3-(2-pyrazinyl)-5,6,7,8-tetrahydro[1,2,4]triazolo[4,3-a]pyrazine]
O=C(c1ccc(Cl)cc1Cl)N1CCn2c(nnc2-c2ncccc2F)C1 [Example 93]
O=C(c1ccc(F)cc1C(F)(F)F)N1CCn2c(nnc2-c2ccccn2)C1 [Example 94, 7-{[4-fluoro-2-(trifluoromethyl)phenyl]carbonyl}-3-(2-pyridinyl)-5,6,7,8-tetrahydro[1,2,4]triazolo [4,3-a]pyrazine]
O=C(c1ccc(Cl)cc1Cl)N1CCn2c(nnc2-c2ccc(F)cn2)C1 [Example 95, 7-[(2,4-dichlorophenyl)carbonyl]-3-(5-fluoro-2-pyridinyl)-5,6,7,8-tetrahydro[1,2,4]triazolo [4,3-a]pyrazine]
O=C(c1ccc(Cl)cc1F)N1CCn2c(nnc2-c2ccccn2)C1 [Example 96, 7-[(4-chloro-2-fluorophenyl)carbonyl]-3-(2-pyridinyl)-5,6,7,8-tetrahydro[1,2,4]triazolo [4,3-a]pyrazine]
O=C(c1ccc(Cl)cc1Cl)N1CCn2c(nnc2-c2cscn2)C1 [Example 97, 7-[(2,4-dichlorophenyl)carbonyl]-3-(1,3-thiazol-4-yl)-5,6,7,8-tetrahydro[1,2,4]triazolo [4,3-a]pyrazine]
O=C(c1cccc(Cl)c1Cl)N1CCn2c(nnc2-c2ccc(F)cc2F)C1 [Example 98]
O=C(c1ccc(Cl)cc1Cl)N1CCn2c(nnc2-c2ccc(F)cc2)C1 [Example 100, 7-[(2,4-dichlorophenyl)carbonyl]-3-(4-fluorophenyl)-5,6,7,8-tetrahydro[1,2,4]triazolo [4,3-a]pyrazine]
O=C(c1ccccc1Cl)N1CCn2c(nnc2-c2cscn2)C1 [Example 103, 7-[(2-chlorophenyl)carbonyl]-3-(1,3-thiazol-4-yl)-5,6,7,8-tetrahydro[1,2,4]triazolo [4,3-a]pyrazine]
